Results as given in EP0896965A1, “Inhibitors of G-protein-beta, gamma subumit function” (BOEHRINGER MANNHEIM GMBH, priority 1997, dated 1999).
Like-named read-outs stand apart in the source and are kept apart here. For at least one compound, name, drawing or mass did not settle the structure. No end group written: not given here.

Chains of the proteins cited; added tags and fusions are not shown. Residues count along the entry.
UniProt P62873, 2-340 limits assumed: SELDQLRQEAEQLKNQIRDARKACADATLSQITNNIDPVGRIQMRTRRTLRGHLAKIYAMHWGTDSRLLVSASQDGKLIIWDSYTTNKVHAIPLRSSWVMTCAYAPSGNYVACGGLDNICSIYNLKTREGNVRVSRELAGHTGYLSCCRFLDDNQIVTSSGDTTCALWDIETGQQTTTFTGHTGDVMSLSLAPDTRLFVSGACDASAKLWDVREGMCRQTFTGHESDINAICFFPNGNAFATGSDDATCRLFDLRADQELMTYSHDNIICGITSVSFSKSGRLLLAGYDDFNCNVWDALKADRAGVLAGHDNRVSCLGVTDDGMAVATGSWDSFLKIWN
UniProt P62871, 2-340 limits assumed: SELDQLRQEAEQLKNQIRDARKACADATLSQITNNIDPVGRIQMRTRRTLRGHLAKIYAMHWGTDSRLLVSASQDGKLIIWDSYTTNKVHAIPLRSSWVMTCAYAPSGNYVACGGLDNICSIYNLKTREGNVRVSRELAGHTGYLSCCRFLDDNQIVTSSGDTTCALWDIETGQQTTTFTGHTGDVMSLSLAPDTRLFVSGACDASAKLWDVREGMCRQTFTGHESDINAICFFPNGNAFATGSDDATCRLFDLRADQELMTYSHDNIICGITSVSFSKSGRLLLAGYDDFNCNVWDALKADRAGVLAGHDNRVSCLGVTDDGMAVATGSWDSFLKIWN

Legend:
[1] = target: T1, GoGTPase in brain membranes (Homo sapiens, UniProt P62873); experiment: Inhibition of GoGTPase in brain membranes; assay type: biochemical; details: data not shown
T1 construct: the IC50-value of this peptide on GoGTPase in brain membranes was about 20 µM; from tissue; host or cells: brain membranes

[2] = target: T2, Gβγ-stimulated adenylyl cyclase-2 (Bos taurus, UniProt P62871); experiment: Inhibition of Gβγ-stimulated adenylyl cyclase-2 activity in Sf9 cell membranes; assay type: biochemical, bovine; details: membranes of Sf9 cells; 100 nM Gsα and 100 nM Gβγ
T2 construct: The different peptides were incubated with purified bovine brain Gβγ(100 nM); expressed in transfected cells; host or cells: AC2: membranes of baculovirus-infected Sf9 cells; Gβγ: purified from bovine brain

Go = target: T3, Go (Bos taurus, UniProt P62871); experiment: Inhibition of basal GTPase activity of Go in solution (detergent-containing buffer); assay type: biochemical, bovine; details: synthetic peptides, 0.1 % Lubro and 25 mM MgSO4, mean ± SEM of 3 independent experiments, read-out: IC50-values, inhibition of G0GTPase activity
T3 construct: G0 (purified from bovine brain according to Sternweis and Robishaw 1984); from tissue; host or cells: bovine brain

| Sequence | IC50 [1] [nM] | IC50 [2] [nM] | IC50 (Go; listed as (215-232)) [nM] | IC50 (Go) [nM] |
| --- | --- | --- | --- | --- |
| GDVESFLNEYGLLPEKEM [phosducin(215-232)] | ~20000 | 100000 | ~380 | 380 ± 30 |
| VESFLNEYGLLPEKEMHVLEQTNMEEDME [phosducin(217-246)] | – | – | – | 630 ± 140 |
| VTEQLAEEFFTGDVESFLNEYGLLPEKE [phosducin(204-231)] | – | – | – | 320 ± 45 |
